PubChem BioAssay AID1259254, NCATS, 2017
Shown is an unselected part of about 59,000 reagents. About 1,550 of all reagents (2.6%) count as active. 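G2 share is only a proxy for re-replication; each gene was hit by three separate siRNAs, and active genes were retested.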 Raw values are not corrected between plates. The numbers tell different reagents against one gene apart. Not given: the amount of reagent.

Aim: 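Genome-wide screen for genes that prevent DNA re-replication in cancer cells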 (primary screen)
Cells: human HCT116 colorectal cancer cells
Reagents: single siRNA against human genes
Duration: 3 days
Measured: 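Imaged Hoechst DNA stain sorts each cell into a cycle phase by DNA amount; per plate, G2 fraction set to 0% for non-targeting and 100% for GMNN siRNA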
Scale: G2 robust z-score and G2 cells, % of GMNN control: higher = more G2 cells, more excess DNA replication; raw share of cells in G2: higher = larger share of cells with G2 DNA content
Hit rule: 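An siRNA counts as active if its G2 robust z-score lies at least 5 MADs above the screen median; here such calls match roughly 38% of GMNN control or more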

gene | reagent no. | G2 robust z-score | G2 cells, % of GMNN control | raw share of cells in G2 (%) | call
PROKR1 (prokineticin receptor 1) | 1 | -1.22 | -5.64 | 3.82 | inactive
PROKR1 (prokineticin receptor 1) | 2 | 0.141 | 3.96 | 5.9 | inactive
PROKR1 (prokineticin receptor 1) | 3 | -0.524 | -0.719 | 3.05 | inactive
NCOA7 (nuclear receptor coactivator 7) | 1 | -0.211 | 1.48 | 4.73 | inactive
NCOA7 (nuclear receptor coactivator 7) | 2 | 2.35 | 19.5 | 9.3 | inactive
NCOA7 (nuclear receptor coactivator 7) | 3 | -0.59 | -1.18 | 2.15 | inactive
CRB3 (crumbs cell polarity complex component 3) | 1 | 0.316 | 5.19 | 4.57 | inactive
CRB3 (crumbs cell polarity complex component 3) | 2 | 1.01 | 10.1 | 8.36 | inactive
CRB3 (crumbs cell polarity complex component 3) | 3 | -0.00546 | 2.93 | 3.92 | inactive
GRN (granulin precursor) | 1 | -0.759 | -2.37 | 2.81 | inactive
GRN (granulin precursor) | 2 | 4.08 | 31.6 | 16.7 | inactive
GRN (granulin precursor) | 3 | -0.0372 | 2.71 | 6.29 | inactive
MED21 (mediator complex subunit 21) | 1 | 0.579 | 7.04 | 9.12 | inactive
MED21 (mediator complex subunit 21) | 2 | -0.05 | 2.62 | 4.43 | inactive
MED21 (mediator complex subunit 21) | 3 | -1 | -4.09 | 2.17 | inactive
DIRAS1 (DIRAS family GTPase 1) | 1 | 2.58 | 21.1 | 12.4 | inactive
DIRAS1 (DIRAS family GTPase 1) | 2 | 0.612 | 7.27 | 7.76 | inactive
DIRAS1 (DIRAS family GTPase 1) | 3 | -0.399 | 0.159 | 6.03 | inactive
NSL1 (NSL1 component of MIS12 kinetochore complex) | 1 | -0.44 | -0.129 | 4.36 | inactive
NSL1 (NSL1 component of MIS12 kinetochore complex) | 2 | 2.84 | 22.9 | 13.9 | inactive
NSL1 (NSL1 component of MIS12 kinetochore complex) | 3 | 0.225 | 4.55 | 4.89 | inactive
GOLGA6L9 (golgin A6 family like 9) | 1 | 0.0964 | 3.65 | 4.8 | inactive
GOLGA6L9 (golgin A6 family like 9) | 2 | -0.65 | -1.61 | 2.57 | inactive
GOLGA6L9 (golgin A6 family like 9) | 3 | -0.275 | 1.03 | 4.02 | inactive
PTCH1 (patched 1) | 1 | 0.0198 | 3.11 | 6.29 | inactive
PTCH1 (patched 1) | 2 | -0.855 | -3.05 | 3.02 | inactive
PTCH1 (patched 1) | 3 | 2.28 | 19 | 10.2 | inactive
TTLL13 (tubulin tyrosine ligase like 13) | 1 | -0.495 | -0.516 | 3.42 | inactive
TTLL13 (tubulin tyrosine ligase like 13) | 2 | 1.83 | 15.8 | 9.41 | inactive
TTLL13 (tubulin tyrosine ligase like 13) | 3 | 1.53 | 13.7 | 7.79 | inactive
CERT1 (ceramide transporter 1) | 1 | -1.57 | -8.1 | 3.07 | inactive
CERT1 (ceramide transporter 1) | 2 | -0.63 | -1.46 | 4.66 | inactive
CERT1 (ceramide transporter 1) | 3 | 0.286 | 4.98 | 5.28 | inactive
HS3ST4 (heparan sulfate-glucosamine 3-sulfotransferase 4) | 1 | 0.482 | 6.36 | 7.61 | inactive
HS3ST4 (heparan sulfate-glucosamine 3-sulfotransferase 4) | 2 | 0.304 | 5.1 | 6.82 | inactive
HS3ST4 (heparan sulfate-glucosamine 3-sulfotransferase 4) | 3 | -0.559 | -0.968 | 2.87 | inactive
LOC441167 (retired record) | 1 | 0.591 | 7.13 | 6.37 | inactive
LOC441167 (retired record) | 2 | -0.286 | 0.952 | 3.78 | inactive
LOC441167 (retired record) | 3 | 1.99 | 17 | 8.88 | inactive
DPY19L4 (dpy-19 like 4) | 1 | 1.77 | 15.4 | 9.25 | inactive
DPY19L4 (dpy-19 like 4) | 2 | -0.746 | -2.28 | 2.16 | inactive
DPY19L4 (dpy-19 like 4) | 3 | 1.47 | 13.3 | 7.32 | inactive
RBBP9 (RB binding protein 9, serine hydrolase) | 1 | 0.25 | 4.73 | 6.84 | inactive
RBBP9 (RB binding protein 9, serine hydrolase) | 2 | 1.03 | 10.2 | 8.37 | inactive
RBBP9 (RB binding protein 9, serine hydrolase) | 3 | -0.722 | -2.11 | 2.38 | inactive
SKINT1L (Skint1 like (pseudogene)) | 1 | 1.68 | 14.8 | 10.9 | inactive
SKINT1L (Skint1 like (pseudogene)) | 2 | 7.23 | 53.8 | 23.4 | active
SKINT1L (Skint1 like (pseudogene)) | 3 | 0.229 | 4.58 | 5.33 | inactive
RNF141 (ring finger protein 141) | 1 | -1.17 | -5.25 | 1.85 | inactive
RNF141 (ring finger protein 141) | 2 | -0.434 | -0.0881 | 4.52 | inactive
RNF141 (ring finger protein 141) | 3 | 0.0154 | 3.08 | 4.22 | inactive
ENOPH1 (enolase-phosphatase 1) | 1 | 0.677 | 7.73 | 7.39 | inactive
ENOPH1 (enolase-phosphatase 1) | 2 | -0.731 | -2.18 | 3.42 | inactive
ENOPH1 (enolase-phosphatase 1) | 3 | -0.901 | -3.37 | 1.96 | inactive
CBARP (CACN subunit beta associated regulatory protein) | 1 | 0.148 | 4.01 | 4.47 | inactive
CBARP (CACN subunit beta associated regulatory protein) | 2 | 0.672 | 7.7 | 6.37 | inactive
CBARP (CACN subunit beta associated regulatory protein) | 3 | 0.194 | 4.33 | 4.61 | inactive
CMTM7 (CKLF like MARVEL transmembrane domain containing 7) | 1 | 3.63 | 28.5 | 15.5 | inactive
CMTM7 (CKLF like MARVEL transmembrane domain containing 7) | 2 | -0.384 | 0.269 | 3.41 | inactive
CMTM7 (CKLF like MARVEL transmembrane domain containing 7) | 3 | -0.022 | 2.81 | 2.64 | inactive
OSBPL11 (oxysterol binding protein like 11) | 1 | -0.649 | -1.6 | 3.88 | inactive
OSBPL11 (oxysterol binding protein like 11) | 2 | -0.185 | 1.66 | 5.68 | inactive
OSBPL11 (oxysterol binding protein like 11) | 3 | -0.544 | -0.863 | 5.27 | inactive
CLTB (clathrin light chain B) | 1 | 0.783 | 8.48 | 7.99 | inactive
CLTB (clathrin light chain B) | 2 | 1.7 | 14.9 | 10.4 | inactive
CLTB (clathrin light chain B) | 3 | -0.247 | 1.23 | 4.52 | inactive
GPT2 (glutamic--pyruvic transaminase 2) | 1 | -0.28 | 0.998 | 4.56 | inactive
GPT2 (glutamic--pyruvic transaminase 2) | 2 | 2.77 | 22.5 | 14.8 | inactive
GPT2 (glutamic--pyruvic transaminase 2) | 3 | 0.087 | 3.58 | 6.11 | inactive
ZKSCAN8P1 (ZKSCAN8 pseudogene 1) | 1 | -0.508 | -0.605 | 3.06 | inactive
ZKSCAN8P1 (ZKSCAN8 pseudogene 1) | 2 | 0.122 | 3.83 | 4.59 | inactive
ZKSCAN8P1 (ZKSCAN8 pseudogene 1) | 3 | 0.418 | 5.91 | 4.53 | inactive
NBAT1 (neuroblastoma associated transcript 1) | 1 | 0.704 | 7.92 | 6.96 | inactive
NBAT1 (neuroblastoma associated transcript 1) | 2 | 2.48 | 20.4 | 9.9 | inactive
NBAT1 (neuroblastoma associated transcript 1) | 3 | -0.623 | -1.41 | 2.56 | inactive
MRAP2 (melanocortin 2 receptor accessory protein 2) | 1 | 0.167 | 4.14 | 3.03 | inactive
MRAP2 (melanocortin 2 receptor accessory protein 2) | 2 | -0.262 | 1.12 | 4.54 | inactive
MRAP2 (melanocortin 2 receptor accessory protein 2) | 3 | 1.71 | 15 | 7.8 | inactive
CARMIL2 (capping protein regulator and myosin 1 linker 2) | 1 | -0.56 | -0.974 | 3.5 | inactive
CARMIL2 (capping protein regulator and myosin 1 linker 2) | 2 | -0.313 | 0.763 | 3.15 | inactive
CARMIL2 (capping protein regulator and myosin 1 linker 2) | 3 | 1.47 | 13.3 | 7.7 | inactive
SRP19 (signal recognition particle 19) | 1 | 5.44 | 41.2 | 23.4 | active
SRP19 (signal recognition particle 19) | 2 | 1.65 | 14.6 | 9.68 | inactive
SRP19 (signal recognition particle 19) | 3 | 2.61 | 21.4 | 10.9 | inactive
FOXJ3 (forkhead box J3) | 1 | 2.91 | 23.5 | 15.8 | inactive
FOXJ3 (forkhead box J3) | 2 | 0.29 | 5 | 5.83 | inactive
FOXJ3 (forkhead box J3) | 3 | -1.26 | -5.91 | 1.84 | inactive
